Publication PMC5241553
These are yes or no findings as the source states them, for the method shown. Binding seen in cells or lysates may run through a third protein.

The chains behind the UniProt entries cited, without tags or fusion partners.
UniProt Q8BGM7: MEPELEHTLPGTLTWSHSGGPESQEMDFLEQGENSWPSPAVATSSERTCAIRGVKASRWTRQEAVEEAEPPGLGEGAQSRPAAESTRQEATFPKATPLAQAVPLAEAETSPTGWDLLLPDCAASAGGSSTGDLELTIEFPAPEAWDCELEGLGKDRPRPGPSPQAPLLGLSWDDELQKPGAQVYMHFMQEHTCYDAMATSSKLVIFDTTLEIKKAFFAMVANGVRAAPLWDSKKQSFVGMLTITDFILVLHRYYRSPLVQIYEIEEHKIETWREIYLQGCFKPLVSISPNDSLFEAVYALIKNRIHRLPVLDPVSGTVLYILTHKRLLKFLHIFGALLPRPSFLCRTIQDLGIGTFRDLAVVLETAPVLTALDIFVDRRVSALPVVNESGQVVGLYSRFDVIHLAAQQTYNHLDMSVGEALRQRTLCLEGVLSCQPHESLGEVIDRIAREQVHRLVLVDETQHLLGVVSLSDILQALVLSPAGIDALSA
UniProt O54950: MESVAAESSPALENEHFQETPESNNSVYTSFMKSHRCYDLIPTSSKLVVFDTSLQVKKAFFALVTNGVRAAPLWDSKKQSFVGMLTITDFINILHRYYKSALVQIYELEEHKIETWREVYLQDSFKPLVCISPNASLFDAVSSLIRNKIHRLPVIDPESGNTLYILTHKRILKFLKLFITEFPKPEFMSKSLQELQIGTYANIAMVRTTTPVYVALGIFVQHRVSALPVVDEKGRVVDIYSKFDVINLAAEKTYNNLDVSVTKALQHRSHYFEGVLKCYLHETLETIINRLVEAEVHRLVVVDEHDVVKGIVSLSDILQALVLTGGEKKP

Molecular target: AMPKγ3 (mouse (endogenous in gastrocnemius muscle)) (UniProt Q8BGM7)
Assay: co-IP; sequential immunoprecipitation: AMPKγ3 antibody first, then AMPKγ1 antibody on the supernatant, from 200 μg mouse gastrocnemius muscle lysate protein; immunoblot of input, supernatant and immunoprecipitates

binding: no binding
Substance: AMPKγ1 (from UniProt O54950 1-330)
